Earlier results as cited in patent publication US8324156B2, “Oral insulin therapies and protocol” (Emisphere Technologies, Inc., priority 2003, dated 2012).
Some entries share one result that the patent states for a list of compounds.

How the values were obtained:
[1] = system: blood glucose; conditions: oral sulfonylureas; cited from earlier work
[2] = system: blood glucose; conditions: marketed insulin preparations; cited from earlier work

Molecule | duration of action [1] [h] | onset of action [2] [min] | peak time of effect [2] [min]
CC(=O)c1ccc(S(=O)(=O)NC(=O)NC2CCCCC2)cc1 [Acetohexamide] | 10 to 14 |  | 
Cc1ccc(S(=O)(=O)NC(=O)NN2CCCCCC2)cc1 [Tolazamide] | 10 to 14 |  | 
Regular insulin |  | 30 to 60 | 
aspart |  | 10 to 30 | 30 to 60
lispro |  | 10 to 30 | 30 to 60
